Experimental data: publication PMC9266917 (International Journal of Molecular Sciences, 2022)

Experiment: general procedure: Fmoc solid-phase peptide synthesis; Rink Amide (0.38 mmol/g); HBTU/DIEA
Conditions: whole synthesis, 220 nm, scale of the general procedure 0.2 mmol

Question: With KLALKLALKALKAALKLA-NH2 as the substance, how does the “final HPLC purity” value read?
Answer: 100%
